No constants are given. Whether binding was seen depends on the method and setting. In cells and extracts the contact can be indirect. Some results given as binding are weak or reduced against the parent protein; the word gives no strength. For part of these data: Tags and fused reporters may be left off the sequences shown. Blank lines part the entries; values can stand above or below the molecule they belong to.
Key:
[1] = target: PINK1 (PTEN-induced kinase 1), endogenous in HCT116 cells (human (endogenous in HCT116)) (UniProt Q9BXM7); assay: co-IP; IP with a PINK1 antibody from cytosolic and mitochondrial fractions of HCT116 cells, Western blot; NETN buffer (50 mM Tris-HCl pH 8.0, 150 mM NaCl, 1% NP-40), 3 h at 4°C
[2] = target: PINK1 (PTEN-induced kinase 1), endogenous in HCT116 cells (human (endogenous in HCT116)) (UniProt Q9BXM7); assay: co-IP; co-IP of PINK1 with ATR in whole cell extracts of HCT116 cells, with control siRNA, siATR or the ATR inhibitor VE821; NETN buffer, 3 h at 4°C
HSP90α = HSP90α (UniProt P07900); assay: co-IP; IP with the HSP90α antibody, Western blot; cells not told in the text (Supplementary Fig. S4C and D)
FLAG-ATR-WT (HEK293T) [3] = target: FLAG-ATR-WT (HEK293T) (UniProt Q13535); assay: co-IP; IP with the FLAG antibody from lysates of transfected HEK293T cells, Western blot; NETN buffer, 3 h at 4°C
FLAG-ATR-WT (U2OS) = FLAG-ATR-WT (U2OS) (UniProt Q13535); assay: proximity ligation; U2OS cells co-transfected with FLAG-ATR-WT and GFP-PINK1-FL or GFP-PINK1-D3, Duolink In Situ Red kit, MitoTracker staining
[4] = target: ATR, endogenous in N2A cells (mouse (endogenous in N2A)) (UniProt Q9JKK8); assay: co-IP + native gel or EMSA; 1D BN-PAGE of lysate of mitochondria isolated from N2A cells (1% Triton X-100 sample buffer) and IP with a rabbit anti-ATR antibody, IP samples heated at 99°C for 10 min; blots for ATR, TOM22, PINK1
[5] = target: ATR, endogenous in U2OS cells (human (endogenous in U2OS)) (UniProt Q13535); assay: proximity ligation; endogenous proteins in U2OS cells (shNC or shATR), Duolink In Situ Red kit, co-staining with MitoTracker; IgG controls
FLAG-ATR-WT (HEK293T) [6] = target: FLAG-ATR-WT (HEK293T) (UniProt Q13535); assay: co-IP; IP with the FLAG antibody from lysates of transfected HEK293T cells, Western blot; NETN buffer, 3 h at 4°C; remark: listed apart in the source
FLAG-ATR-WT (HEK293T) [7] = target: FLAG-ATR-WT (HEK293T) (UniProt Q13535); assay: co-IP; IP with the FLAG antibody from cells transfected with FLAG-ATR and HA-TIM23 (HEK293T in the text, HCT116 in the legend), Western blot; NETN buffer, 3 h at 4°C

By UniProt entry, the sequences of proteins in these tests, tags left out. Where a name states a change or a piece, a line headed by the entry shows the natural chain unless it says otherwise. Residues count along the entry.
UniProt Q9BXM7, residues 78-581: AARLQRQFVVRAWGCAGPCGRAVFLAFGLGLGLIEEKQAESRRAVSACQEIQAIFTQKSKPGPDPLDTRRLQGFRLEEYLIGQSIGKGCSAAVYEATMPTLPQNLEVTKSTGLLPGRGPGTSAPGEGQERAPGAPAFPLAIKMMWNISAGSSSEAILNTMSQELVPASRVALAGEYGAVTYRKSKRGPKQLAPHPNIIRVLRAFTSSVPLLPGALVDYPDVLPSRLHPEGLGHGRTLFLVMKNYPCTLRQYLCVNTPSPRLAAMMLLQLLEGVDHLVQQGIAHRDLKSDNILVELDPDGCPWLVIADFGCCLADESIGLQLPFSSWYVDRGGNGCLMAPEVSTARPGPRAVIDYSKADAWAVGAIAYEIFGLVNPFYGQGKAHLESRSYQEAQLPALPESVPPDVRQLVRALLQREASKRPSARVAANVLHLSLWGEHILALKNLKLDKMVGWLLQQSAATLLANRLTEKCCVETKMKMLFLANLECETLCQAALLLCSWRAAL
UniProt Q13535: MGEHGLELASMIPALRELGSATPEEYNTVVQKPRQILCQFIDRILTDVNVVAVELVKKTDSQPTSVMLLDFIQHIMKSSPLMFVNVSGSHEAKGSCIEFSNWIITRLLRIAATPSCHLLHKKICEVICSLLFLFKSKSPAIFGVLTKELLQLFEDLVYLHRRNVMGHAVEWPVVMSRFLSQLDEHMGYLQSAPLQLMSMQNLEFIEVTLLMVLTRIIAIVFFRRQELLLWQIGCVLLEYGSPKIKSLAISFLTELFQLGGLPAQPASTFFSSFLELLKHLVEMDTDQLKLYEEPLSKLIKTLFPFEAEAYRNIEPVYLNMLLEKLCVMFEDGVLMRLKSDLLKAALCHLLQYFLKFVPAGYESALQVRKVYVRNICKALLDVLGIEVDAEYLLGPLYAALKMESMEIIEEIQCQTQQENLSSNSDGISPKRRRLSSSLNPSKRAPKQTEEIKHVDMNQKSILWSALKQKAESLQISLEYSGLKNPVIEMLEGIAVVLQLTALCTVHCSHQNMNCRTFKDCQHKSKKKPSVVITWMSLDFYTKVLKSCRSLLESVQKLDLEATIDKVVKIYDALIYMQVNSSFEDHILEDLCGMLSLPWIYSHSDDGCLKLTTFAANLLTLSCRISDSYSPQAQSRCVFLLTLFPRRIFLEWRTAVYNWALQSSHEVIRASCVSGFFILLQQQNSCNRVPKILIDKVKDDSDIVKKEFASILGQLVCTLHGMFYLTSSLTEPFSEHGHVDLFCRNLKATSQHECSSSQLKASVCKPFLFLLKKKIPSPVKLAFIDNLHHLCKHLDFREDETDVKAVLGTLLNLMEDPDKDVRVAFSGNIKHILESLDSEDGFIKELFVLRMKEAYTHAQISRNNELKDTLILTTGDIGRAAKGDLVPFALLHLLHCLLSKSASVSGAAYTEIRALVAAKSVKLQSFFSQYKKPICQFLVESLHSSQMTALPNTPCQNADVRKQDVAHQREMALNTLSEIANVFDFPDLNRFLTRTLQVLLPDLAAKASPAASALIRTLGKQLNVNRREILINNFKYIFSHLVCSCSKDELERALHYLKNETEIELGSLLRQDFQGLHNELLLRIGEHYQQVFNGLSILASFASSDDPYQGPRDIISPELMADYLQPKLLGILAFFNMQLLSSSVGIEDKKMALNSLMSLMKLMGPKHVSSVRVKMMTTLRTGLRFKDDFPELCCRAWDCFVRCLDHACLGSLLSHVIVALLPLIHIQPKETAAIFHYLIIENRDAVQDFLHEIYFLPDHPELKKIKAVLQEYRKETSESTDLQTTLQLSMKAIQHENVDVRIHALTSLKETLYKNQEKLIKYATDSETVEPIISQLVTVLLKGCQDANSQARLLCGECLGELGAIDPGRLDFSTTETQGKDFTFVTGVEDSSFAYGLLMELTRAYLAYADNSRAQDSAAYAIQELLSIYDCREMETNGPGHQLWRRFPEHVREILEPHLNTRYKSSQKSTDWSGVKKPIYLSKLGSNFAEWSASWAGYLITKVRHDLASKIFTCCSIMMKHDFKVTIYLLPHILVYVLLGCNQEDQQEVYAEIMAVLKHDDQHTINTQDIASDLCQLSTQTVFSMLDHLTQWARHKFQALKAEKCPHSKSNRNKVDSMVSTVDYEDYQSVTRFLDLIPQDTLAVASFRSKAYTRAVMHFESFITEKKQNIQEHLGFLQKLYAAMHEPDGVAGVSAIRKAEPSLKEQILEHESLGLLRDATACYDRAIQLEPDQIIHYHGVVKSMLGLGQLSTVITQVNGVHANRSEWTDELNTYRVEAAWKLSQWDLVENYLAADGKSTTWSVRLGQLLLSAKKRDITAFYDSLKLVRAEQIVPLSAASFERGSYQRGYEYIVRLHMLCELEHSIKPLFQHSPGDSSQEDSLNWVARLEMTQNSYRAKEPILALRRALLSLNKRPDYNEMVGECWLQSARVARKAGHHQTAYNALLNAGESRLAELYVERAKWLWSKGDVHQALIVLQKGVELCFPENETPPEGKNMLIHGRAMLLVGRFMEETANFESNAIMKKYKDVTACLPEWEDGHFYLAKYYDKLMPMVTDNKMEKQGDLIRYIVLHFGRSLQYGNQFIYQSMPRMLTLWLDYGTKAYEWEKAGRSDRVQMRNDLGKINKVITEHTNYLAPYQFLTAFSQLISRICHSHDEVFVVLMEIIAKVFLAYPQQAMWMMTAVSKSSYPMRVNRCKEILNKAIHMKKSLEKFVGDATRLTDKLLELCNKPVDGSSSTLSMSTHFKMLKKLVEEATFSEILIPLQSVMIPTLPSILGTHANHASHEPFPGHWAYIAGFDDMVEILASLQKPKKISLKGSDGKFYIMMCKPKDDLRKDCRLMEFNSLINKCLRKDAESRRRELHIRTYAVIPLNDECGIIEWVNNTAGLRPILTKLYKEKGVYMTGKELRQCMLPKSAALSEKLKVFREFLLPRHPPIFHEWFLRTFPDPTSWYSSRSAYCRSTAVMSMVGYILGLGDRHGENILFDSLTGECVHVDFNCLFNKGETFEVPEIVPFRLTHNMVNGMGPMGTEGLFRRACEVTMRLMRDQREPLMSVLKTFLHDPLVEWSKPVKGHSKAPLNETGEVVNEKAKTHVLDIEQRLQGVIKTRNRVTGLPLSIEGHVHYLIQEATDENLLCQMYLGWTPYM
UniProt Q9JKK8: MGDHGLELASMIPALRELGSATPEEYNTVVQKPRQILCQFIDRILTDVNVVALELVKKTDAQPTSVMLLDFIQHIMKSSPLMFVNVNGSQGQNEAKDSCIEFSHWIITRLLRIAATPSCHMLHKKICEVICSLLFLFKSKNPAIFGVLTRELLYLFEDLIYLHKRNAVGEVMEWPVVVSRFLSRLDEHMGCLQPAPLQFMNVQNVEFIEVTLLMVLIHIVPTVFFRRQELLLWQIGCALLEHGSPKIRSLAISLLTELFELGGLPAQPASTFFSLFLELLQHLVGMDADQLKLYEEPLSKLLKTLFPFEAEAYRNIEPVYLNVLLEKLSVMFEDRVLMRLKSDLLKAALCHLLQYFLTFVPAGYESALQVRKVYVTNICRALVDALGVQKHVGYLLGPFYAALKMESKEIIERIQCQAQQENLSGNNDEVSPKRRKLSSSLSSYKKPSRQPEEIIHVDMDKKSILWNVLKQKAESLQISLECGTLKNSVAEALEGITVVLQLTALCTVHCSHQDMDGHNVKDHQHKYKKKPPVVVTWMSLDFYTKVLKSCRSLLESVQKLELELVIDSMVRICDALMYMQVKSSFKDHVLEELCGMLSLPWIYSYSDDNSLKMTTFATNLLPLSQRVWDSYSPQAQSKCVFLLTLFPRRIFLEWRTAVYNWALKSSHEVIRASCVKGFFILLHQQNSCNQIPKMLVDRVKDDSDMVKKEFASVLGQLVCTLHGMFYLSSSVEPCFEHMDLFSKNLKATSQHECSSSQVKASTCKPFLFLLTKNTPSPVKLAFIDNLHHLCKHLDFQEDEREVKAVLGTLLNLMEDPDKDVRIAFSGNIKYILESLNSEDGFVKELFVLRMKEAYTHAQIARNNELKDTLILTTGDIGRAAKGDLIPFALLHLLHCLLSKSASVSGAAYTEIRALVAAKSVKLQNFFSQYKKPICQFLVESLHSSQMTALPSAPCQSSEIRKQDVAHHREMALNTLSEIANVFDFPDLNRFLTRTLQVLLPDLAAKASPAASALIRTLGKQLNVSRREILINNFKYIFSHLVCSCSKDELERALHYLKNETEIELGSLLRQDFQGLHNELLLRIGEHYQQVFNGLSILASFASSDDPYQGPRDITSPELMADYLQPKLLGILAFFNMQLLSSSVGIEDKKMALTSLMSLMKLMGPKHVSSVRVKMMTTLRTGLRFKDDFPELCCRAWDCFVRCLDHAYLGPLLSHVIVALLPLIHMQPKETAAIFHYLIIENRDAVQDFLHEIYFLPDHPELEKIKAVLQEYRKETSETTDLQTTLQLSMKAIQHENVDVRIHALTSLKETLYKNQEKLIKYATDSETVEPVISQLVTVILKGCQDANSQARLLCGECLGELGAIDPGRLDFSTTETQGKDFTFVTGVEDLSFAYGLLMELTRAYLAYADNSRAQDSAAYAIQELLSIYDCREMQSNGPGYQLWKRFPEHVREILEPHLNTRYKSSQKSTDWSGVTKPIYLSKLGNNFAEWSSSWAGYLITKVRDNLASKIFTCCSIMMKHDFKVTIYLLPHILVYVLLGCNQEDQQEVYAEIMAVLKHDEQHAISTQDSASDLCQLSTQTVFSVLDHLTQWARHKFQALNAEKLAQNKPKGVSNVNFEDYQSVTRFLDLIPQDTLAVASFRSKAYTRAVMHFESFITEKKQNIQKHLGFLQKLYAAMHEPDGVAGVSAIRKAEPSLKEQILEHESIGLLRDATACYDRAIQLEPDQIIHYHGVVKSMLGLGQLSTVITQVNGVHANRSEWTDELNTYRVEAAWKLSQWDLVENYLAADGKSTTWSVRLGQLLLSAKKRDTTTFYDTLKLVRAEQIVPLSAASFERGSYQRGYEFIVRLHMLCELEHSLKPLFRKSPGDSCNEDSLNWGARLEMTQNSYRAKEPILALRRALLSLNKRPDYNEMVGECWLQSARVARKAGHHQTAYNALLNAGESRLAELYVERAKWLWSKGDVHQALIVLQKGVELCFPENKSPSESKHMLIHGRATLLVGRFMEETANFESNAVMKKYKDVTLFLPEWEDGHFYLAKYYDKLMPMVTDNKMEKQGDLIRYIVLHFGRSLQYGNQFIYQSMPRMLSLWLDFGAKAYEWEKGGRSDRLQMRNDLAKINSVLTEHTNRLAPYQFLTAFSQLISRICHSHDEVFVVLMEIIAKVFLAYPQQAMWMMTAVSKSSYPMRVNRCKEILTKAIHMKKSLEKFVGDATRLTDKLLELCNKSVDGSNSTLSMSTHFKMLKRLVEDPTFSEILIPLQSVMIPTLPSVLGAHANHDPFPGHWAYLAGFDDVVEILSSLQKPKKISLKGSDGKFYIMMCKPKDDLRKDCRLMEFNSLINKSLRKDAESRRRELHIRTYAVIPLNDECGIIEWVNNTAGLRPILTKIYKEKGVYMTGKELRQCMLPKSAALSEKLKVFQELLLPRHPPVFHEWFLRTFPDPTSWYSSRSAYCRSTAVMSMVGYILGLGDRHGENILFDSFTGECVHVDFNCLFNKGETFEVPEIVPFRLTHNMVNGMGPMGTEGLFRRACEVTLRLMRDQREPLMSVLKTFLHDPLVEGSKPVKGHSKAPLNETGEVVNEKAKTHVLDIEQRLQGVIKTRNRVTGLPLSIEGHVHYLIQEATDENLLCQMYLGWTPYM
UniProt Q99MQ3: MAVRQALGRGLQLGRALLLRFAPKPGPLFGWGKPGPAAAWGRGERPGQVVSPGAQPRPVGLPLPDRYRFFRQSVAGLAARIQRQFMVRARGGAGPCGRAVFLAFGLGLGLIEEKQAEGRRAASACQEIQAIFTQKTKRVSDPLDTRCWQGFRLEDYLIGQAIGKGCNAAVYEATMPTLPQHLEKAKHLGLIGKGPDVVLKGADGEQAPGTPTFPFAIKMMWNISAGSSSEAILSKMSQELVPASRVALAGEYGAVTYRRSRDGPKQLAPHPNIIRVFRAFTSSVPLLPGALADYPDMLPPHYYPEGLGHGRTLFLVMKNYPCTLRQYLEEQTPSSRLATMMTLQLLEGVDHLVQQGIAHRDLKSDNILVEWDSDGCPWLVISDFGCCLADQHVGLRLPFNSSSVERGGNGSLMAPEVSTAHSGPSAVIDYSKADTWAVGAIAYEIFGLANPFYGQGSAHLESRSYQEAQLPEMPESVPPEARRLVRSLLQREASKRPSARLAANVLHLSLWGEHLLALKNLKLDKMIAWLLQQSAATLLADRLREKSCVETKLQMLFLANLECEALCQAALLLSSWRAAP

binding (HSP90α): binds
Molecule: ATR in the HSP90α co-IP (from UniProt Q13535 1-2644)

binding (FLAG-ATR-WT (U2OS)): binds
Molecule: GFP-PINK1-FL (U2OS) (from UniProt Q9BXM7 78-581)

binding [5]: binds
Molecule: PINK1, endogenous in U2OS cells (from UniProt Q9BXM7 78-581)

binding (FLAG-ATR-WT (HEK293T) [7]): binds
B5: HA-TIM23 (protein, UniProt O14925 1-209)
chain: MEGGGGSGNKTTGGLAGFFGAGGAGYSHADLAGVPLTGMNPLSPYLNVDPRYLVQDTDEFILPTGANKTRGRFELAFFTIGGCCMTGAAFGAMNGLRLGLKETQNMAWSKPRNVQILNMVTRQGALWANTLGSLALLYSAFGVIIEKTRGAEDDLNTVAAGTMTGMLYKCTGGLRGIARGGLTGLTLTSLYALYNNWEHMKGSLLQQSL

The remaining lines, values behind:

Molecule: ATR (ataxia-telangiectasia and Rad3-related), endogenous in HCT116 cells (from UniProt Q13535 1-2644)
binding [1]: binds
binding [2]: binds

Molecule: GFP-PINK1-FL (HEK293T) (from UniProt Q9BXM7 78-581)
binding (FLAG-ATR-WT (HEK293T) [3]): binds

Molecule: PINK1, endogenous in N2A cells (from UniProt Q99MQ3 78-580)
binding [4]: binds

B1: TOM22, endogenous in N2A cells (protein, UniProt Q9CPQ3 1-142)
chain: MAAAVAAAGAGEPLSPEELLPKAEAEKAEEELEEDDDDELDETLSERLWGLTEMFPERVRSAAGATFDLSLFVAQKMYRFSRAALWIGTTSFMILVLPVVFETEKLQMEQQQQLQQRQILLGPNTGLSGGMPGALPPLPGKM
binding [4]: binds

B2: TOM40, endogenous in U2OS cells (protein, UniProt O96008 1-361)
chain: MGNVLAASSPPAGPPPPPAPALVGLPPPPPSPPGFTLPPLGGSLGAGTSTSRSSERTPGAATASASGAAEDGACGCLPNPGTFEECHRKCKELFPIQMEGVKLTVNKGLSNHFQVNHTVALSTIGESNYHFGVTYVGTKQLSPTEAFPVLVGDMDNSGSLNAQVIHQLGPGLRSKMAIQTQQSKFVNWQVDGEYRGSDFTAAVTLGNPDVLVGSGILVAHYLQSITPCLALGGELVYHRRPGEEGTVMSLAGKYTLNNWLATVTLGQAGMHATYYHKASDQLQVGVEFEASTRMQDTSVSFGYQLDLPKANLLFKGSVDSNWIVGATLEKKLPPLPLTLALGAFLNHRKNKFQCGFGLTIG
binding [5]: binds

B3: HA-TOM40 (protein, UniProt O96008 1-361)
chain: B2 chain
binding (FLAG-ATR-WT (HEK293T) [6]): binds

B4: TIM23, endogenous in U2OS cells (protein, UniProt O14925 1-209)
chain: B5 chain
binding [5]: binds
